PubChem BioAssay AID686937 | Drosophila RNAi Screening Center – 2013
The deposit covers about 23,000 reagents; this is an unselected part of those that have a named target and a result. 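Reduced-secretion tags in replicate 1 do not always agree with the z-scores; no criterion for assigning the tags was given.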 Reagents against one gene are numbered here. Names joined by + are all predicted targets of the reagent. Not given: the amount of reagent.

Screen: 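Genes whose loss weakens secretory pathway function in fly cells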 (primary screen)
Cells: Drosophila S2 cells expressing secreted horseradish peroxidase
Reagents: long dsRNA against Drosophila genes
Time to read-out: about 5.5 days (5 days dsRNA, then 12 h reporter induction)
Conditions: reporter expression induced after 5 days of dsRNA, read 12 h later; inducer not stated
Read-out: 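Chemiluminescent measurement of peroxidase in the medium 12 h after reporter induction, following 5 days of dsRNA, given as a z-score per plate; higher means more secretion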
Scale: z-score: higher = more reporter secreted into medium

| target | dsRNA no. | z-score, replicate 1 | z-score, replicate 2 | phenotype, replicate 1 |
| --- | --- | --- | --- | --- |
| inaF-B | 1 | 0.32 | -0.97 | – |
| CG32246 | 1 | 0.32 | 0.07 | – |
| Dark | 1 | 0.06 | 0.21 | – |
| ACXA | 1 | 0.07 | 0.09 | – |
| MnM | 1 | 0.24 | -0.18 | – |
| COX6CL | 1 | -0.3 | 0.27 | – |
| CG15286 | 1 | -0.01 | 0.15 | – |
| ey | 1 | 0.47 | 0.48 | – |
| Prosbeta4R1 | 1 | 0.13 | 0.04 | – |
| CG10171 | 1 | 0.06 | 0.21 | – |
| Oamb | 1 | -0.06 | -0.13 | – |
| Oamb | 2 | 0 | -0.21 | – |
| Oamb | 3 | 0.22 | 0.52 | – |
| RpS14b | 1 | -2.52 | -2.94 | reduced secretion |
| CG15741 | 1 | 0.22 | 0.29 | – |

In a second layout: 5 of the entries above
ACXA
- z-score, replicate 1: 0.07
- z-score, replicate 2: 0.09

MnM
- z-score, replicate 1: 0.24
- z-score, replicate 2: -0.18

COX6CL
- z-score, replicate 1: -0.3
- z-score, replicate 2: 0.27

CG15286
- z-score, replicate 1: -0.01
- z-score, replicate 2: 0.15

ey
- z-score, replicate 1: 0.47
- z-score, replicate 2: 0.48

More results follow:
| target | dsRNA no. | z-score, replicate 1 | z-score, replicate 2 | phenotype, replicate 1 |
| --- | --- | --- | --- | --- |
| CG8303 | 1 | 0.06 | 0.06 | – |
| dpp | 1 | 0.76 | 0.42 | – |
| dpp | 2 | 0.22 | 0.11 | – |
| dpp | 3 | 0.15 | 0.06 | – |
| CG2269 | 1 | 0.58 | 0.39 | – |
| Xrcc2 | 1 | -0.15 | -1.08 | – |
| Mcm10 | 1 | 0.12 | 0.21 | – |
| Hsl | 1 | 0.16 | 0.07 | – |
| CG15365 | 1 | -4.51 | -4.47 | reduced secretion |
| Wnt10 | 1 | -0.2 | 0.09 | – |
| Wnt10 | 2 | 0.33 | 0.41 | – |
| spirit | 1 | 0.29 | 0.39 | – |
| spab | 1 | 0.12 | 0.27 | – |
| CG13365 | 1 | 0.33 | 0.13 | – |
| CG33262 | 1 | -0.27 | -0.34 | – |
| Dcr-2 | 1 | 0.38 | -0.33 | – |
| CG3494 | 1 | 0.34 | 0.1 | – |
| CG42394 + CG6567 | 1 | 0.03 | -0.41 | – |
